No constants are given. Whether binding was seen depends on the method and setting. For some of these results: Binding seen in cells or lysates may run through a third protein. Some results given as binding are weak or reduced against the parent protein; the word gives no strength. For some of these results: Sequences can lack the tags named with a protein.
Columns and labels:
[1] = target: stefin B wild type (C3E31) fused to a half of the yellow fluorescent protein (human) (UniProt P04080); test: split reporter; split YFP halves (NYFP, CYFP) on the C-terminus of each protein, co-transfected in HEK293 cells, live adherent cells imaged by confocal microscopy (488 nm)
[2] = target: T1, stefin B G4R mutant fused to a half of the yellow fluorescent protein (human) (UniProt P04080); test: as above
T1 sequence: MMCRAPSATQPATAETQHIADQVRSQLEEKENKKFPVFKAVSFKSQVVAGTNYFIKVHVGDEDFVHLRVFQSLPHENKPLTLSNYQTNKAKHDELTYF

[3] = target: recombinant stefin B wild type (Ser at position 3 instead of Cys) (human) (UniProt P04080); test: SEC; Superdex 75 column, 0.01 M phosphate buffer, 0.12 M NaCl, pH 6.1; both purified

| Binder | binding [1] | binding [2] | binding [3] |
| --- | --- | --- | --- |
| stefin B wild type (C3E31) fused to a half of the yellow fluorescent protein (protein, UniProt P04080 1-98) MMCGAPSATQPATAETQHIADQVRSQLEEKENKKFPVFKAVSFKSQVVAGTNYFIKVHVGDEDFVHLRVFQSLPHENKPLTLSNYQTNKAKHDELTYF | binds | binds |  |
| stefin B G4R mutant fused to a half of the yellow fluorescent protein (protein, UniProt P04080 1-98) MMCRAPSATQPATAETQHIADQVRSQLEEKENKKFPVFKAVSFKSQVVAGTNYFIKVHVGDEDFVHLRVFQSLPHENKPLTLSNYQTNKAKHDELTYF |  | binds |  |
| recombinant stefin B wild type (Ser at position 3 instead of Cys) (protein, UniProt P04080 1-98) MMSGAPSATQPATAETQHIADQVRSQLEEKENKKFPVFKAVSFKSQVVAGTNYFIKVHVGDEDFVHLRVFQSLPHENKPLTLSNYQTNKAKHDELTYF |  |  | binds |

From paper PMC4105463
